PubChem BioAssay AID504791, Drosophila RNAi Screening Center – 2011

Screen: 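Genes whose knock-down strengthens or weakens small-RNA reporter silencing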 (primary screen)
Cell system: Drosophila S2-derived reporter cells
Reagent: long dsRNA against Drosophila genes, about 150-250 ng dsRNA per well (siRNA assay); about 80-120 ng (miRNA assay)
Duration: about 5 days (siRNA assay); about 4 days (miRNA assay)
Challenge: copper sulfate induction of reporters: 25 µM (siRNA assay); 200 mM stated (miRNA assay), 1-2 days before reading
Detection: 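Dual luciferase assay: Renilla to firefly signal ratio in each well, scaled to the mean ratio of its plate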
Direction: siRNA reporter hit score: higher = 3 marks a strong hit with raised ratio; -3 a strong hit with lowered ratio
Hit rule: 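a well was a first-pass pick when its plate-scaled ratio rose above 1.5 (siRNA assay) or 1.6 (miRNA assay), or dropped below 0.6; a gene counted only if two separate dsRNAs agreed on retest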
The deposit covers about 23,000 reagents; this is a random part of those with a known target gene and a result. Over the whole deposit, 199 (0.86%) are marked active. 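Plate-scaled ratios behind the calls are not deposited; printed light signals are raw; many rows marked increased or decreased are still called inactive.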 Reagent sequences are not shown.

gene knocked down,dsRNA,siRNA reporter hit score,stable siRNA reporter change,miRNA reporter change,"stable assay Renilla, run 1 (luminescence)","stable assay firefly, run 1 (luminescence)",Call
CG9394 (GeneID 37399),DRSC04550,,,,7222,5.44e5,inactive
CG5958 (GeneID 34022),DRSC02915,,,,7215,3.55e5,inactive
CG8870 (GeneID 41645),DRSC16452,,,,7706,4.01e5,inactive
Cpr76Ba (GeneID 40120),DRSC11060,,,,8146,4.68e5,inactive
eya (GeneID 33916),DRSC03510,,,,12824,5.47e5,inactive
Dnaaf3 (GeneID 37125),DRSC06684,,,,4595,2.21e5,inactive
SIDL (GeneID 41833),DRSC16077,,,,8464,3.27e5,inactive
CG32720 (GeneID 318170),DRSC17529,,,,4783,4.45e5,inactive
lncRNA:sphinx (GeneID 4379815),DRSC17199,,reporter ratio lowered past the hit cutoff,,4751,4.87e5,inactive
slgA (GeneID 33117),DRSC20586,,,,7592,4.42e5,inactive
Nmdmc (GeneID 47895),DRSC16760,,,,9757,5.20e5,inactive
gek (GeneID 37858),DRSC04688,,,,44535,1.41e6,inactive
REG (GeneID 32274),DRSC20273,,,,5498,3.64e5,inactive
CG13527 (GeneID 37615),DRSC04169,,,,6911,4.26e5,inactive
CG11583 (GeneID 326206),DRSC08202,,,,7592,3.45e5,inactive
CG42552 (retired record) (GeneID 8674047),DRSC11512,,,,6728,4.19e5,inactive
CG3557 (GeneID 33426),DRSC00614,,,,12065,6.77e5,inactive
Nse4 (GeneID 34434),DRSC02239,,,,5003,4.04e5,inactive
NdufA3 (GeneID 50405),DRSC18431,,,,5543,6.96e5,inactive
CG32376 (GeneID 318002),DRSC22754,,,,4435,3.61e5,inactive
CG33978 (GeneID 3885646),DRSC17106,,,,6407,3.38e5,inactive
CG7785 (GeneID 42158),DRSC16311,,,,7303,3.20e5,inactive
Trm7-32 (GeneID 42056),DRSC15741,,,,8537,2.51e5,inactive
knk (GeneID 47137),DRSC15993,,,,6903,3.33e5,inactive
CG10911 (GeneID 37058),DRSC06008,,,,6760,3.62e5,inactive
CG18870 (GeneID 59218),DRSC04313,,,,7679,4.49e5,inactive
cpb (GeneID 33346),DRSC00809,,,,17443,8.98e5,inactive
CG1416 (GeneID 35426),DRSC03706,,,,10243,3.79e5,inactive
Brr2 (GeneID 39737),DRSC10559,,,,9345,2.57e5,inactive
Rbp1-like (GeneID 32293),DRSC19828,,,,3991,2.85e5,inactive
Rbp1-like (GeneID 32293),DRSC22075,,,,9945,7.45e5,inactive
Syx16 (GeneID 33034),DRSC20507,,,,8938,4.90e5,inactive
CG30184 (GeneID 246506),DRSC22277,,,,9387,5.92e5,inactive
CG8012 (GeneID 50305),DRSC10951,,,,6590,4.66e5,inactive
Grip (GeneID 50391),DRSC17940,,,,5315,2.67e5,inactive
Grip (GeneID 50391),DRSC18395,,,,4860,2.40e5,inactive
CG3649 (GeneID 37626),DRSC04400,,,,5288,3.60e5,inactive
CG13000 (GeneID 32685),DRSC19519,,,,4867,3.45e5,inactive
CG2852 (GeneID 37591),DRSC04321,,,,6038,4.09e5,inactive
CG32161 (GeneID 317890),DRSC22128,,,,9806,7.69e5,inactive
Fatp (retired record) (GeneID 44227),DRSC03054,,,,7496,6.59e5,inactive
CG11374 (GeneID 33163),DRSC00306,,,,7623,4.42e5,inactive
RtcB (GeneID 35220),DRSC03280,,,,8599,4.55e5,inactive
mthl12 (GeneID 261599),DRSC12964,,,,6700,5.62e5,inactive
Prosalpha6 (GeneID 34359),DRSC03401,,reporter ratio raised past the hit cutoff,,7640,2.26e5,active
CG7542 (GeneID 39960),DRSC10868,,,,7942,3.64e5,inactive
jdp (GeneID 43630),DRSC16975,,,,7755,4.84e5,inactive
Cad86C (GeneID 41302),DRSC15587,,,,6030,3.39e5,inactive
Cad86C (GeneID 41302),DRSC15611,,,,6447,3.60e5,inactive
CG15343 (GeneID 31765),DRSC18028,,,,5596,2.58e5,inactive
CG16799 (GeneID 37340),DRSC06626,,,,5551,3.96e5,inactive
CG16799 (GeneID 37340),DRSC21553,,,,9248,4.29e5,inactive
robls54B (GeneID 5740248),DRSC05660,,,,6591,3.61e5,inactive
CG30472 (GeneID 246634),DRSC22245,,,,4728,4.93e5,inactive
Cerk (GeneID 40640),DRSC12285,,,,7703,4.83e5,inactive
CG1273 (GeneID 38522),DRSC08291,,,,6702,4.10e5,inactive
PCB (GeneID 36020),DRSC05939,,,,8868,3.80e5,inactive
CCT4 (GeneID 34674),DRSC02865,,,,7976,3.99e5,inactive
CG32053 (GeneID 39178),DRSC10683,,,,8515,5.34e5,inactive
Sf3b6 (GeneID 38720),DRSC09972,,,,8399,5.56e5,inactive
Set8 (GeneID 41743),DRSC15473,,,,9281,4.13e5,inactive
Lkr (GeneID 38622),DRSC09754,,,,6184,3.55e5,inactive
Cht8 (GeneID 37390),DRSC04546,,,,6248,5.55e5,inactive
CG7556 (GeneID 32902),DRSC20052,-3,reporter ratio lowered past the hit cutoff,,2308,2.82e5,inactive
Sod2 (GeneID 36878),DRSC07554,,,,8407,2.70e5,inactive
CG30394 (GeneID 37437),DRSC04074,,,,7570,4.47e5,inactive
CG30394 (GeneID 37437),DRSC04260,,,,7380,4.37e5,inactive
ERR (GeneID 38912),DRSC10840,,,,8271,4.18e5,inactive
CG10903 (GeneID 40952),DRSC14281,,,,6370,4.31e5,inactive
tw (GeneID 31024),DRSC18537,,,,9266,6.09e5,inactive
CG9106 (GeneID 32454),DRSC20154,,,,6984,4.48e5,inactive
Gr59d (GeneID 117343),DRSC22553,,,,5036,4.70e5,inactive
Lztr1 (GeneID 31037),DRSC18176,,,,7659,3.96e5,inactive
Lztr1 (GeneID 31037),DRSC18647,,,,8120,4.18e5,inactive
Rh50 (GeneID 38589),DRSC08692,,,,7805,3.88e5,inactive
ND-B16.6 (GeneID 31578),DRSC18306,,,,6071,4.82e5,inactive
ND-B16.6 (GeneID 31578),DRSC22600,,,,3659,3.86e5,inactive
kappaTry (GeneID 36215),DRSC06146,,,,6000,2.91e5,inactive
Manf (GeneID 41983),DRSC14091,,,,7236,3.42e5,inactive
CG12983 (GeneID 40319),DRSC11692,,,,7407,3.83e5,inactive
gol (GeneID 38006),DRSC04689,,,,26864,1.12e6,inactive
CG7369 (GeneID 2768961),DRSC11822,,,,4487,2.68e5,inactive
CG18469 (GeneID 36943),DRSC21838,,,,8654,6.98e5,inactive
CG11883 (GeneID 36121),DRSC06094,,,,7214,3.72e5,inactive
CG3650 (GeneID 37974),DRSC04401,,,,6274,3.93e5,inactive
tld (GeneID 42945),DRSC17084,,,,7338,3.56e5,inactive
Gr28a (GeneID 117348),DRSC02290,,,,7272,3.43e5,inactive
wash (GeneID 36311),DRSC06302,,,,6235,3.31e5,inactive
CG9921 (GeneID 32599),DRSC20220,,,,4511,4.05e5,inactive
meng (GeneID 33948),DRSC02134,,,,9860,4.96e5,inactive
RabX4 (GeneID 42960),DRSC22189,,,,9294,5.54e5,inactive
pbl (GeneID 38879),DRSC11381,,,,7863,3.28e5,inactive
Or45a (GeneID 35958),DRSC07487,,,,5388,2.49e5,inactive
CG3226 (GeneID 31597),DRSC18296,,reporter ratio lowered past the hit cutoff,,5467,5.21e5,inactive
CG31068 (GeneID 318578),DRSC13820,,,,6131,4.47e5,inactive
Dredd (GeneID 31011),DRSC18461,,,,8711,4.87e5,inactive
Art4 (GeneID 41219),DRSC15779,,,,5907,4.57e5,inactive
CG13983 (GeneID 33875),DRSC02315,,,,8434,4.29e5,inactive
TMEM216 (GeneID 41035),DRSC16378,,,,5695,3.14e5,inactive
verm (GeneID 40149),DRSC11038,,,,10473,4.06e5,inactive
pHCl-1 (GeneID 39730),DRSC09401,,,,5619,3.49e5,inactive
pHCl-1 (GeneID 39730),DRSC09991,,,reporter ratio lowered past the hit cutoff,7132,4.66e5,inactive
pHCl-1 (GeneID 39730),DRSC10589,,,,9090,4.79e5,inactive
CG14326 (GeneID 42120),DRSC14805,,,,8946,5.49e5,inactive
CG15930 (GeneID 31446),DRSC18107,,,,6134,4.43e5,inactive
CG15515 (GeneID 43538),DRSC15054,,,,6051,3.29e5,inactive

Sorted by “stable assay firefly, run 1 (luminescence)” (lowest first): 13 of the entries above.
gene knocked down,dsRNA,siRNA reporter hit score,stable siRNA reporter change,miRNA reporter change,"stable assay Renilla, run 1 (luminescence)","stable assay firefly, run 1 (luminescence)",Call
CG7369 (GeneID 2768961),DRSC11822,,,,4487,2.68e5,inactive
pbl (GeneID 38879),DRSC11381,,,,7863,3.28e5,inactive
wash (GeneID 36311),DRSC06302,,,,6235,3.31e5,inactive
Gr28a (GeneID 117348),DRSC02290,,,,7272,3.43e5,inactive
tld (GeneID 42945),DRSC17084,,,,7338,3.56e5,inactive
CG11883 (GeneID 36121),DRSC06094,,,,7214,3.72e5,inactive
CG12983 (GeneID 40319),DRSC11692,,,,7407,3.83e5,inactive
CG3650 (GeneID 37974),DRSC04401,,,,6274,3.93e5,inactive
CG9921 (GeneID 32599),DRSC20220,,,,4511,4.05e5,inactive
meng (GeneID 33948),DRSC02134,,,,9860,4.96e5,inactive
RabX4 (GeneID 42960),DRSC22189,,,,9294,5.54e5,inactive
CG18469 (GeneID 36943),DRSC21838,,,,8654,6.98e5,inactive
gol (GeneID 38006),DRSC04689,,,,26864,1.12e6,inactive
